The supplement of paper PMC11732987, “Enantioselective OTUD7B fragment discovery through chemoproteomics screening and high-throughput optimisation” (Communications Chemistry, 2025)
The list shows a part of the results. The data scatter; read single values as rough.

By UniProt entry, the sequences of proteins in these tests, tags left out. Where a name states a change or a piece, a line headed by the entry shows the natural chain unless it says otherwise. Residues count along the entry.
UniProt Q96C19, 13-58: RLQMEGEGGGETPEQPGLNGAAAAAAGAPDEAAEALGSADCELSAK
UniProt P60981: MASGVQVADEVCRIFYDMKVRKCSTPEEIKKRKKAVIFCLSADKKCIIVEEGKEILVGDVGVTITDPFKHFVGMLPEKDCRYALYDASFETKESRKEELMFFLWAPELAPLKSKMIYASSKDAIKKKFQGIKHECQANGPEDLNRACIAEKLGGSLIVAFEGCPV
UniProt Q14204, whole entry, looked up: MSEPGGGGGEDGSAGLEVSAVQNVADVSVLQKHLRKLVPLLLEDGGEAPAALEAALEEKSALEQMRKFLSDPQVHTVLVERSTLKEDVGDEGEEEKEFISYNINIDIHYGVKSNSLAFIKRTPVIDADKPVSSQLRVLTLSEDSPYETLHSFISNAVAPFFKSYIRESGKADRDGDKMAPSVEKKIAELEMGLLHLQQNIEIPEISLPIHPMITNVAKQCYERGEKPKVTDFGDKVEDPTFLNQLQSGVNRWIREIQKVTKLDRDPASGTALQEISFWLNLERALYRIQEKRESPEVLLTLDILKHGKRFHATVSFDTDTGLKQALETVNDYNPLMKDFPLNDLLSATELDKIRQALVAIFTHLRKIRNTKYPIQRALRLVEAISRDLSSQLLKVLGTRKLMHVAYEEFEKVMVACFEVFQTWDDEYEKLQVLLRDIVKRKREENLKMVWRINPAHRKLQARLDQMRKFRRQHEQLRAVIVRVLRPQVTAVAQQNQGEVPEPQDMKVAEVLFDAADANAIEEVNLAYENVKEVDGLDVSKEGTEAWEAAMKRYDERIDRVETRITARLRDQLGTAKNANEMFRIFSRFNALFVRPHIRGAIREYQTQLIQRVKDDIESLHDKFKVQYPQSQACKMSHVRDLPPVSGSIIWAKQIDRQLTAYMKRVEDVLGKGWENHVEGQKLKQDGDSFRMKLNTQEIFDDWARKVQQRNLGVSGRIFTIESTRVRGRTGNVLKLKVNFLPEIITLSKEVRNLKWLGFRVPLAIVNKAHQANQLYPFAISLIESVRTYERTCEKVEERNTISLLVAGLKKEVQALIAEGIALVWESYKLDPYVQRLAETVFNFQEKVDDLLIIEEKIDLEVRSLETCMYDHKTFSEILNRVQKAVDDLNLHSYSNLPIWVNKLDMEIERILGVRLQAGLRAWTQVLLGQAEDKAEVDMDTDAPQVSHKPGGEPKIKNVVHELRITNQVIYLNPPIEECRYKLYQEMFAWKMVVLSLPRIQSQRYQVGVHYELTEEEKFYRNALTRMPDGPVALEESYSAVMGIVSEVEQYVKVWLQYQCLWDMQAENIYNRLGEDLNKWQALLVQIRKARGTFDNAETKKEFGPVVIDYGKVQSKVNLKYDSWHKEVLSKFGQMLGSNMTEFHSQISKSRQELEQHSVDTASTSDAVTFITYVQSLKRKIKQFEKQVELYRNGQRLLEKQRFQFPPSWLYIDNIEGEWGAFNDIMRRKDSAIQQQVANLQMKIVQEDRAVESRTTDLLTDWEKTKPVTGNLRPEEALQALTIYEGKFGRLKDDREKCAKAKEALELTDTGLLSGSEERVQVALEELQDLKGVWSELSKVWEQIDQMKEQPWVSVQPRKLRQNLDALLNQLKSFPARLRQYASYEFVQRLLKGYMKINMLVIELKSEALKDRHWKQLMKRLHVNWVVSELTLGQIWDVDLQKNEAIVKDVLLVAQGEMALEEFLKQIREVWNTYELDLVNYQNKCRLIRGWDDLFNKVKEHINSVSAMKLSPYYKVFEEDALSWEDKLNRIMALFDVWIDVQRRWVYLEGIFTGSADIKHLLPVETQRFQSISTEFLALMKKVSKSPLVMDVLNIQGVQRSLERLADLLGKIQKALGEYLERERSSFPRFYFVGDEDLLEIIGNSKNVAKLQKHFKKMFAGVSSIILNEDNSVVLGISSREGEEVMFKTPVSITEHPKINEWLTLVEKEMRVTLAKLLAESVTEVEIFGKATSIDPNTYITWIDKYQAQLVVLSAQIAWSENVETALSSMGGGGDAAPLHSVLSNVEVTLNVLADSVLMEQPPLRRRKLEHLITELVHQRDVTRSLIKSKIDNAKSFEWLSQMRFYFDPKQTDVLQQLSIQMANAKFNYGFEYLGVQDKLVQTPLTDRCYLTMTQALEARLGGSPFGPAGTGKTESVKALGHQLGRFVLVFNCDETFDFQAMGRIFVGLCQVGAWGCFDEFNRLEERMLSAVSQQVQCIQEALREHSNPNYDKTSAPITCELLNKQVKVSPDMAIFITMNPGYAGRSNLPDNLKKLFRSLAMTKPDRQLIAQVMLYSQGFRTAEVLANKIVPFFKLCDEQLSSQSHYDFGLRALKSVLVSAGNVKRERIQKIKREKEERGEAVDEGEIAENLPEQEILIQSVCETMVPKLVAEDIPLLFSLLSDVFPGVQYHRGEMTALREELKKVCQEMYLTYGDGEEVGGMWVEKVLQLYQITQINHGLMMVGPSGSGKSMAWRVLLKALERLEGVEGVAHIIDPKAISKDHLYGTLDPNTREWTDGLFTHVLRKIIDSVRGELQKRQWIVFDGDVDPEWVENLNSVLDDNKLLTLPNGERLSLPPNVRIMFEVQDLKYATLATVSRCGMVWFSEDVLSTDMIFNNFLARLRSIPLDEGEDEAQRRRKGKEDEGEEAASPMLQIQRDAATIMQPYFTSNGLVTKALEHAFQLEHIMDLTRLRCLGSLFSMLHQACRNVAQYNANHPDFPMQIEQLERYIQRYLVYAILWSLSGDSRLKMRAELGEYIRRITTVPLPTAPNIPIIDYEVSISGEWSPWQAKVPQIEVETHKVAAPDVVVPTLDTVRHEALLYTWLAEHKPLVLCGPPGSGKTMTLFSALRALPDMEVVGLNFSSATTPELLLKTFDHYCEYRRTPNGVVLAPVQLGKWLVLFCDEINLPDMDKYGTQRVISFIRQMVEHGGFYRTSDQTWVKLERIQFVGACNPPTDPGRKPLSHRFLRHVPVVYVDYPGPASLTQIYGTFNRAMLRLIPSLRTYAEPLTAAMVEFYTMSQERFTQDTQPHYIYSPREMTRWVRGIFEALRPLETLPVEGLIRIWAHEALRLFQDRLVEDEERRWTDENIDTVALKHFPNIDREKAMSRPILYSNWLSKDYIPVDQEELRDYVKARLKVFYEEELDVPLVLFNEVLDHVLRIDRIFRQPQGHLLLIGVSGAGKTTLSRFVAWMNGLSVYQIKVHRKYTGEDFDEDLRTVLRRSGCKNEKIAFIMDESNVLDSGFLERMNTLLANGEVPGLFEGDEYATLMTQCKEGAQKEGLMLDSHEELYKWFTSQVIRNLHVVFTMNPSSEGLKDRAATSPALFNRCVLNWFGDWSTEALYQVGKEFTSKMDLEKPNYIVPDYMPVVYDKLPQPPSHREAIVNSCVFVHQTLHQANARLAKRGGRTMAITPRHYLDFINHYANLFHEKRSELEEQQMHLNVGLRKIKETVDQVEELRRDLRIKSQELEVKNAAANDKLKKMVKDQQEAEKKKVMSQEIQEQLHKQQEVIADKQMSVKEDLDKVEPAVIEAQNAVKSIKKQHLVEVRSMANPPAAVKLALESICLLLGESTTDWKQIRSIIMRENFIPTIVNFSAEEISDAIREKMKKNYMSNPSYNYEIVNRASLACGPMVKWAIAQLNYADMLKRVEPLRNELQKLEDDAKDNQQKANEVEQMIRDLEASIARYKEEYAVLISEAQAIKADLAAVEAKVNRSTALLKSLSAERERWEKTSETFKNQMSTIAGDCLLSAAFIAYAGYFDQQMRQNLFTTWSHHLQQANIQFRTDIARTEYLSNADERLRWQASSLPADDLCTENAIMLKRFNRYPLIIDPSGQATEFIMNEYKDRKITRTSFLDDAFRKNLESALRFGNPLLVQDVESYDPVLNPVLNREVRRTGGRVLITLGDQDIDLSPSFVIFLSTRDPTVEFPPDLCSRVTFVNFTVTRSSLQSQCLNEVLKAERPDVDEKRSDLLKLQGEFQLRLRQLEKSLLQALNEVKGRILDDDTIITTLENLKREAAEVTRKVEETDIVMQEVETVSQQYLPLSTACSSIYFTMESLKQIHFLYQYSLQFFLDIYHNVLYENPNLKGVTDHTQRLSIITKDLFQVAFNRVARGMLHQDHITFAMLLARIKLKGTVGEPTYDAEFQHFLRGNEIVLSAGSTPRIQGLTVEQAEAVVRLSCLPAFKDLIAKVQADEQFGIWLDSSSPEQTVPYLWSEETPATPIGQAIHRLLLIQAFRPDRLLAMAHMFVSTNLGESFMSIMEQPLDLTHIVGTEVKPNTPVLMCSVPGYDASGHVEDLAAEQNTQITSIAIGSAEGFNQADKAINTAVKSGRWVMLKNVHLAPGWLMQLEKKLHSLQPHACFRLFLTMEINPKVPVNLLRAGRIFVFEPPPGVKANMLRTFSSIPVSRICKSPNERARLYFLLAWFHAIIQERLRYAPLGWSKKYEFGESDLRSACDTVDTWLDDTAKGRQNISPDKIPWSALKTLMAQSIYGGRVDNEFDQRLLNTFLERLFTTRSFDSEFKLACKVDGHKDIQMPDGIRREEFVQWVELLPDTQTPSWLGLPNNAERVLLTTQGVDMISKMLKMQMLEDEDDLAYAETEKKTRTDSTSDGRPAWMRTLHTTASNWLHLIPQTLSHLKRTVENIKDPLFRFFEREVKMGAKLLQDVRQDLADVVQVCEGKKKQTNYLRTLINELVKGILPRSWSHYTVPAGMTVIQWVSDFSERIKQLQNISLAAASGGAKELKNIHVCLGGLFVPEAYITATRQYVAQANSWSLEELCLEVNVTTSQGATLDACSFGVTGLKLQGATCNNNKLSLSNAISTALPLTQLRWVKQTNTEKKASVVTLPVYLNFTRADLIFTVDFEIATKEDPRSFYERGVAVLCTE
UniProt Q14204, 2119-2148: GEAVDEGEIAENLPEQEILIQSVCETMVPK
UniProt Q04637, whole entry, looked up: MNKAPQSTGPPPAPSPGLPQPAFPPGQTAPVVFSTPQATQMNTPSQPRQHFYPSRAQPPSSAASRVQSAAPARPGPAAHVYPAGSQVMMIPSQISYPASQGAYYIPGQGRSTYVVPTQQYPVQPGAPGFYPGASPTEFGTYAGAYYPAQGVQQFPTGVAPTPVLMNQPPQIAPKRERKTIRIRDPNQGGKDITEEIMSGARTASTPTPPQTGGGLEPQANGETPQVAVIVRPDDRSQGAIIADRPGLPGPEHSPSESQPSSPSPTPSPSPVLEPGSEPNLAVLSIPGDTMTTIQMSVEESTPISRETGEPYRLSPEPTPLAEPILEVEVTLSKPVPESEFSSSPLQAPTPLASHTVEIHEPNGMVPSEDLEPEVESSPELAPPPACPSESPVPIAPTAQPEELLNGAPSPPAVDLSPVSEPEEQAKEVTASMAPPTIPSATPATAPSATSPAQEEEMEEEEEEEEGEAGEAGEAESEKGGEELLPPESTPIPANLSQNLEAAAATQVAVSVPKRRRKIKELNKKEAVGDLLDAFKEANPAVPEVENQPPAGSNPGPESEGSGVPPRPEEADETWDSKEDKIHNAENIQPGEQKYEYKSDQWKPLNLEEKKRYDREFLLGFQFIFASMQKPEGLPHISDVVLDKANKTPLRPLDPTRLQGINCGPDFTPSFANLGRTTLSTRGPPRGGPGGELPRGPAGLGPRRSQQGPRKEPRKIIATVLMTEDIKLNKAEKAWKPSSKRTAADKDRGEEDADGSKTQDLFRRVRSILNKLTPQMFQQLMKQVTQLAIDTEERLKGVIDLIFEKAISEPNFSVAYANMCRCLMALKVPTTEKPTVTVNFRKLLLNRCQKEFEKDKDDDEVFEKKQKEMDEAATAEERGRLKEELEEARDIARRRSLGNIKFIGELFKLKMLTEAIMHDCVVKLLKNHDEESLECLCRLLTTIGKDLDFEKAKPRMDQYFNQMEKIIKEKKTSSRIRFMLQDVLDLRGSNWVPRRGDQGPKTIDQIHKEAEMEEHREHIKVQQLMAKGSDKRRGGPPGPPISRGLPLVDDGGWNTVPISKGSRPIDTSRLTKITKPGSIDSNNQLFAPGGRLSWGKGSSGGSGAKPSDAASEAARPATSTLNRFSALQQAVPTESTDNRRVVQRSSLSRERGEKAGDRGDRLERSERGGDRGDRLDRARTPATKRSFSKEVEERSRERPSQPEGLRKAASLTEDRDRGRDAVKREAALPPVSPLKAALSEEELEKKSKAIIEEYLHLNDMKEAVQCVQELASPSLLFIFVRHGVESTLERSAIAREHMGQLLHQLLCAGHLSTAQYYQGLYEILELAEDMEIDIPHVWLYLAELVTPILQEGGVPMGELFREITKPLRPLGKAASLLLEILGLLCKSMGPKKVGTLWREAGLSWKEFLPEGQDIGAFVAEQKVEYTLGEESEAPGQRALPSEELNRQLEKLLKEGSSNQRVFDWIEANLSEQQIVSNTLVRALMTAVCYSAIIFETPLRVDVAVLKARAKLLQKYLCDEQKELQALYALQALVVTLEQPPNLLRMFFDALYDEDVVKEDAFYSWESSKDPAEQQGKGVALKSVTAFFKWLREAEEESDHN

Legend:
[1] = compound: ClCC(=O)N[C@@H]1CCCc2ccccc12; test: log2 mean competition ratio of IA-DTB cysteine labelling (DMSO/compound) (log2 ratio); higher = stronger cysteine engagement by compound; conditions: treatment time: 4 h, cell line lysate: HEK293T
Procedure: (§1)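 IA-DTB competitive cysteine chemoproteomics in HEK293T RIPA lysate. Lysates were treated with compound 29 or 30 at 50 or 200 µM for 4 h, then IA-DTB (500 µM, 1 h), trypsin-digested, NeutrAvidin-enriched and analysed by diaPASEF. Competition ratio = intensity DMSO / intensity compound (n=4 treated, n=64 DMSO); binding: mean log2 CR ≥ 1 and p ≤ 0.05 plus QC filters. Target is the cysteine site.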

[2] = compound: ClCC(=O)N[C@H]1CCCc2ccccc12; test: as above; conditions: treatment time: 4 h, cell line lysate: HEK293T
Procedure: as §1

Target	log2 mean competition ratio ([1]; 50 µM)	log2 mean competition ratio ([1]; 200 µM)	log2 mean competition ratio ([2]; 50 µM)	log2 mean competition ratio ([2]; 200 µM)
EFHD2 C53 (UniProt Q96C19)	-0.329	0.186	-0.0387	-0.25
ECPAS C243 (UniProt Q5VYK3)	-0.274	0.238	-0.00761	0.367
EIF2AK1 C466 (UniProt Q9BQI3)	-0.17	0.0738	-0.279	0.0689
EIF3I C76	-0.174	-0.0157	-0.118	0.0782
EHBP1L1 C422 (UniProt Q8N3D4)	0.358	0.233	0.0214	-0.152
EI24 C24 (UniProt O14681)	0.492	-0.238	0.891	-0.169
EED C182	0.501	0.127	0.102	0.184
DST C5056 (UniProt Q03001)	0.403	-0.0595	0.061	-0.0281
EIF4A1 C66	-0.143	-0.491	0.521	-0.0643
ELAC2 C670 (UniProt Q9BQ52)	0.254	-0.00192	0.456	0.009
EDRF1 C882 (UniProt Q3B7T1)	-0.103	0.33	0.219	0.215
DUS1L C426 (UniProt Q6P1R4)	0.233	0.0901	-0.603	-0.122
EIF2S3B C236	-0.332	-0.478	0.0412	-0.358
EIF3A C478 (UniProt Q14152)	-0.266	-0.393	0.303	-0.078
DYNC2H1 C3245 (UniProt Q8NCM8)	0.261	-0.0783	0.369	0.0665
EIF5 C122 (UniProt P55010)	-0.15	0.0812	-0.19	0.177
DSP C1957 (UniProt P15924)	-0.0176	-0.0194	0.182	0.0132
EIF5B C1158 (UniProt O60841)	-0.102	-0.123	0.22	0.00544
DSG2 C580 (UniProt Q14126)	-0.186	0.0775	0.149	0.272
DSTN C46 (UniProt P60981)	0.232	0.00465	0.444	0.137
DYNC1H1 C3940 (UniProt Q14204)	0.0469	-0.253	-0.198	-0.275
EIF3C C500 (UniProt Q99613)	-0.28	-0.0114	-0.126	0.12
DYNC1H1 C2142 (UniProt Q14204)	-0.226	-0.406	-0.0413	0.0461

Target	log2 mean competition ratio ([1]; 50 µM)	log2 mean competition ratio ([1]; 200 µM)	log2 mean competition ratio ([2]; 50 µM)	log2 mean competition ratio ([2]; 200 µM)
DST C3653 (UniProt Q03001)	-0.18	-0.193	0.309	-0.154
EIF4G1 C1516 (UniProt Q04637)	-0.181	-0.333	0.0849	-0.349
DUS2 C116 (UniProt Q9NX74)	-0.0896	-0.33	-0.0715	-0.242
ECD C312 (UniProt O95905)	0.33	0.333	-1.35	0.192
EDC4 C1054 (UniProt Q6P2E9)	0.0752	0.253	-0.0167	0.356
DZIP3 C1078 (UniProt Q86Y13)	0.0577	-0.109	-0.147	0.00854
EFCAB7 C121 (UniProt A8K855)	-0.373	0.145	-0.115	0.274
DUSP11 C211	0.0255	-0.0883	-0.0115	0.072
EDC3 C353 (UniProt Q96F86)	-0.0415	0.0966	0.21	0.109
EIF2D C528 (UniProt P41214)	0.119	-0.13	-0.104	-0.223
DVL1 C72 (UniProt O14640)	-0.0562	0.266	-0.561	0.168
ECPAS C1257 (UniProt Q5VYK3)	0.12	0.292	-0.185	0.35
DUSP7 C54	-0.00394	-0.0281	-0.417	-0.0727
DUT C166	-0.00582	-0.128	0.0971	-0.0816
ELL C411 (UniProt P55199)	0.414	-0.386	0.868	-0.0164
E2F8 C96	-0.0464	0.0213	-0.518	-0.287
DYNC1H1 C4570 (UniProt Q14204)	0.152	0.0105	0.0985	-0.048
DUSP9 C27 (UniProt Q99956)	-0.00897	0.44	-0.348	0.565
EIF4A2 C67 (UniProt Q14240)	-0.14	-0.484	0.524	-0.066
EIF2S3B C348	-0.24	-0.0737	0.423	0.148
EIF2S3B C269	-0.0996	-0.139	-0.321	-0.278
DYRK1A C10 (UniProt Q13627)	0.0232	-0.175	-0.256	-0.0704
DSN1 C191 (UniProt Q9H410)	-0.0788	0.0894	-0.134	0.18

Reformatted: results already given.
Target | log2 mean competition ratio ([1]; 50 µM) | log2 mean competition ratio ([1]; 200 µM) | log2 mean competition ratio ([2]; 50 µM) | log2 mean competition ratio ([2]; 200 µM)
ELL C411 (UniProt P55199) | 0.414 | -0.386 | 0.868 | -0.0164
E2F8 C96 | -0.0464 | 0.0213 | -0.518 | -0.287
